According to doi:10.1101/2024.09.09.612121:
No constants are given. Whether binding was seen depends on the method and setting. Some results given as binding are weak or reduced against the parent protein; the word gives no strength. Where a sequence is shown, tags or fusion partners need not be part of it.

Key:
[1] = target: T1, full-length hexa-histidine tagged self-oligomerization interface mutant Kar9 (budding yeast) (UniProt P32526); test: co-purification
T1 sequence: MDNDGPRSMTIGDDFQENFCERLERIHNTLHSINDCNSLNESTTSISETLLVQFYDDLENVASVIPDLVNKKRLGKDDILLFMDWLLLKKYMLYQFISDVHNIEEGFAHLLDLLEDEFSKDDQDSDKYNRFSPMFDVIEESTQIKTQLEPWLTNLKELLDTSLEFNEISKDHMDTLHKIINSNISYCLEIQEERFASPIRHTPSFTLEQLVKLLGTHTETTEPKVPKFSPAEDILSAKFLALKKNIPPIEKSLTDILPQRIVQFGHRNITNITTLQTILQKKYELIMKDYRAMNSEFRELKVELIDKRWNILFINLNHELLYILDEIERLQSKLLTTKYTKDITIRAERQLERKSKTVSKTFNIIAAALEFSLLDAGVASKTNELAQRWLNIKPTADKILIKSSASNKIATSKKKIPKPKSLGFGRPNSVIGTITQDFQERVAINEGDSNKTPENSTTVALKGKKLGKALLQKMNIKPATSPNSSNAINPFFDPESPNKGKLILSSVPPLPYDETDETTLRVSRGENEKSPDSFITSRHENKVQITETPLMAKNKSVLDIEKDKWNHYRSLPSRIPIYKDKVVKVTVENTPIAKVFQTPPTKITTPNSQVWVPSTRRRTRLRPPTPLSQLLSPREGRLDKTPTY

[2] = target: T2, full-length hexa-histidine tagged wild-type Kar9 (budding yeast) (UniProt P32526); test: co-purification
T2 sequence: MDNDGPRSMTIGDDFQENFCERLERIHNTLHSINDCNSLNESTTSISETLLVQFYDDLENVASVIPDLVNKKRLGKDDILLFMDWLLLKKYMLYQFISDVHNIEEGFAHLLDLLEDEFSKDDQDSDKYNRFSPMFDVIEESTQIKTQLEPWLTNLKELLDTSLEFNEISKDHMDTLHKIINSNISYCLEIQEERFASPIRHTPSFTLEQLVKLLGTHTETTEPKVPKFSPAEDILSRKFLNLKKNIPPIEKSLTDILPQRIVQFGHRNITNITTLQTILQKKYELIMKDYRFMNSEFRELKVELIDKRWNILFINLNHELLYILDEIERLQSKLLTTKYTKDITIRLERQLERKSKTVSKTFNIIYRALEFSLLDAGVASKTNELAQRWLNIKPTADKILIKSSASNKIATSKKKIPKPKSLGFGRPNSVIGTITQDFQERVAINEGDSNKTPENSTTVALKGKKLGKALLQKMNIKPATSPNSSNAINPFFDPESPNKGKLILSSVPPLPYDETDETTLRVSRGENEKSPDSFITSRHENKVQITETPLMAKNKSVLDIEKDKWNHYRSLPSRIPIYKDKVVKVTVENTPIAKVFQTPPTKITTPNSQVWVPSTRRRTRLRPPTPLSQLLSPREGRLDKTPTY

binding [1]: binds
binding [2]: binds
B1: full-length Bim1 (protein, UniProt P40013 1-344)
chain: MSAGIGESRTELLTWLNGLLNLNYKKIEECGTGAAYCQIMDSIYGDLPMNRVKFNATAEYEFQTNYKILQSCFSRHGIEKTVYVDKLIRCKFQDNLEFLQWLKKHWIRHKDESVYDPDARRKYRPIITNNSATKPRTVSNPTTAKRSSSTGTGSAMSGGLATRHSSLGINGSRKTSVTQGQLVAIQAELTKSQETIGSLNEEIEQYKGTVSTLEIEREFYFNKLRDIEILVHTTQDLINEGVYKFNDETITGHGNGNGGALLRFVKKVESILYATAEGFEMNDGEDELNDKNLGEHGTVPNQGGYANSNGEVNGNEGSNHDVIMQNDEGEVGVSNNLIIDEETF
